The assay has as its target recombinant human mesothelin protein (human) (UniProt Q13421). Nature of the assay: ELISA, plate coated with 1 µg/mL mesothelin, 2.5 µg/mL antibody.

By UniProt entry, the sequences of proteins in these tests, tags left out. Where a name states a change or a piece, a line headed by the entry shows the natural chain unless it says otherwise. Chains listed by the source or under a name are the forms on record and can include a tag or linker.
recombinant human mesothelin protein (Q13421, form named): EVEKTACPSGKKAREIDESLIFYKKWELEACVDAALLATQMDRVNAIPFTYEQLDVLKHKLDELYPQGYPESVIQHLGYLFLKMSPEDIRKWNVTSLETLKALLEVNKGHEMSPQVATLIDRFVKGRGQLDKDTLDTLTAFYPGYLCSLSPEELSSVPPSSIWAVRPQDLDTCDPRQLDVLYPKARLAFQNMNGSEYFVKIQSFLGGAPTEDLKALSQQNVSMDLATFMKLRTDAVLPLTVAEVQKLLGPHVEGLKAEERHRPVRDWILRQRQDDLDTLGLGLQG

These are yes or no findings as the source states them, for the method shown. Some binding calls cover weakened binding; strength is not graded here.

B1: MES-1 antibody (antibody, human IgG1, kappa, V domains shown)
VH: EVQLVESGGGLVQPGGSLRLSCAASGFDLGFYFYACWVRQAPGKGLEWVSCIYTAGSGSTYYASWAKGRFTISRDNSKNTLYLQMNSLRAEDTAVYYCARSTANTRSTYYLNLWGQGTLVTVSS
VL: DIQMTQSPSSLSASVGDRVTITCQASQRISSYLSWYQQKPGKVPKLLIYGASTLASGVPSRFSGSGSGTDFTLTISSLQPEDVATYYCQSYAYFDSNNWHAFGGGTKVEIKR
As to B1, the binding entry is “binds”.

The values above are taken from patent US20230398232A1, “Composition and Use of Alternatively Formatted Anti-Mesothelin Antibodies for the Treatment of Cancer” (Navrogen, Inc., priority 2020, published 2023).
